Data as given in PubChem BioAssay AID504786 (Drosophila RNAi Screening Center, 2011).
In all, the deposit lists about 21,000 reagents; below is an unselected part of those that have a named target and a result. 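Primary screen; positive scores mean lost reporter signal, so the sign may be inverted from the usual convention.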

- Test: 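Positive regulators of HIF-driven reporter output in Drosophila cells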 (primary screen)
- System: Drosophila S2 cells with a stable HIF luciferase reporter
- Reagents: long dsRNA against Drosophila genes, about 0.2 µg dsRNA per well of a 384-well plate
- Timing: three days of knock-down, then 20 h of DFO before reading
- Conditions: desferrioxamine (DFO) at 100 µM, an iron chelator that mimics hypoxia, for 20 h
- Read-out: 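HIF reporter luminescence in cells given 100 µM DFO for 20 h, using the mouse ldh-a hypoxia-response element, scored as per-plate z-scores; higher means greater loss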
- Direction: z-score: higher = stronger loss of HIF reporter signal

The opening 2 entries, to show the layout:
no.	gene	PubChem SID	z-score, replicate 1	z-score, replicate 2
1	Sms (GeneID 39403)	SID104190200	-0.1	0.2
2	CG12091 (GeneID 38177)	SID104188043	-0.4	-0.2

Results, from the first entry:
no.	gene	PubChem SID	z-score, replicate 1	z-score, replicate 2
1	Sms (GeneID 39403)	SID104190200	-0.1	0.2
2	CG12091 (GeneID 38177)	SID104188043	-0.4	-0.2
3	CG1907 (GeneID 43483)	SID104195191	-0.4	-0.5
4	Fatp (retired record) (GeneID 44227)	SID104182846	-0.3	-0.2
5	CG8407 (GeneID 36303)	SID104186959	-0.4	0.8
6	CG14834 (GeneID 38814)	SID104189996	-0.2	-0.2
7	Cp7Fa (GeneID 3885650)	SID104197824	-0.2	-0.2
8	Cp7Fa (GeneID 3885650)	SID104197825	-0.3	-0.5
9	Eig71Ea (GeneID 39700)	SID104190940	-0.2	-0.6
10	tzn (GeneID 40299)	SID104191547	0	0.7
11	CG14154 (GeneID 39207)	SID104189948	-0.2	0.2
12	CG10841 (GeneID 41665)	SID104194063	-0.4	0
13	HP1D3csd (GeneID 32906)	SID104199340	-0.3	0
14	mxc (GeneID 31869)	SID104197611	-0.4	1.6
15	Mtr3 (GeneID 40173)	SID104190745	0.2	1.4
16	CG16985 (GeneID 38323)	SID104188293	-0.4	-0.8
17	CG18213 (GeneID 42055)	SID104195108	-0.3	-0.2
18	CG3610 (GeneID 41795)	SID104195294	-0.5	-0.1
19	CG3199 (GeneID 41725)	SID104195259	0	-0.1
20	Or67b (GeneID 39120)	SID104191033	-0.2	0
21	kar (GeneID 45883)	SID104194288	-0.2	-0.5
22	CG9993 (GeneID 37358)	SID104184391	-0.1	-0.1
23	ptc (GeneID 35851)	SID104184909	-0.1	-0.3
24	ptc (GeneID 35851)	SID104187461	-0.2	-0.5
25	CG42355 (GeneID 317969)	SID104187759	0.6	-0.6
26	CG7573 (GeneID 39272)	SID104190676	-0.3	-0.7
27	CG15126 (GeneID 50202)	SID104186340	-0.2	-0.6
28	Rpn12 (GeneID 39845)	SID104191067	7.1	4.6
29	CG13858 (retired record) (GeneID 50058)	SID104194500	-0.2	-0.3
30	CG13858 (retired record) (GeneID 50058)	SID104194501	0.2	-0.9
31	CG13858 (retired record) (GeneID 50058)	SID104194502	0	-0.2
32	CG13858 (retired record) (GeneID 50058)	SID104194503	1.1	-0.3
33	CCDC151 (GeneID 39345)	SID104189923	-0.3	-0.3
34	CG17350 (GeneID 35210)	SID104182403	-0.2	-0.3
